This assay relates to P388 leukemia ip, CD2F1 mice, survival T/C. The experiment in a line: NCI In Vivo Anticancer Drug Screen. Data for tumor model P388 Leukemia (intraperitoneal) in CD2F1 (CDF1) mice. Particulars: T/C endpoint: median survival time, higher T/C = longer survival.
The mark [1] stands for this setting: dose: 25.0 mg/kg/injection, schedule: Q01DX009 (ip), vehicle: saline with Tween-80.
Where [2] appears, read: dose: 50.0 mg/kg/injection, schedule: Q01DX009 (ip), vehicle: saline with Tween-80.
Setting [3] is: dose: 100.0 mg/kg/injection, schedule: Q01DX009 (ip), vehicle: saline with Tween-80.
[4] abbreviates: dose: 200.0 mg/kg/injection, schedule: Q01DX009 (ip), vehicle: saline with Tween-80.
Setting [5] is: dose: 200.0 mg/kg/injection, schedule: Q01DX009 (ip), vehicle: saline.
[6] abbreviates: dose: 400.0 mg/kg/injection, schedule: Q01DX009 (ip), vehicle: saline with Tween-80.
The mark [7] stands for this setting: dose: 100.0 mg/kg/injection, schedule: Q01DX005 (ip), vehicle: saline with Tween-80.
Where [8] appears, read: dose: 400.0 mg/kg/injection, schedule: Q04DX002 (ip), vehicle: saline.
Where [9] appears, read: dose: 60.0 mg/kg/injection, schedule: Q01DX005 (ip), vehicle: Klucel (hydroxypropylcellulose) (HPC).
The mark [10] stands for this setting: dose: 240.0 mg/kg/injection, schedule: Q01DX005 (ip), vehicle: Klucel (hydroxypropylcellulose) (HPC).

The list does not hold the whole screen: it is rich in T/C values a quarter to a half above the control, in often repeated tests (any T/C) and in doses without a T/C. Other doses and runs of a compound stand elsewhere. T/C: endpoint of the treated group in % of that of the vehicle group. Some entries give survivors of the animals treated and no T/C: the source holds a T/C of zero for them, seemingly a mark for toxic or unscored doses. Some doses without a T/C left all or most animals alive at the check, yet need not have been tolerated: survival well below the control is almost never listed, so the zero probably covers shortened survival too. Counts of survivors are from the toxicity check (mostly the fifth day) where no day follows; animals may have died later. Schedule codes are those of the source, read here as Q, the interval in days (D) or hours (H), X, the number of doses. Additions like (4×) say how often a value occurs here. Some entries hold several experiments; their values stand side by side, smallest first. Some molecules as drawn cover several salts, stereoisomers or complexes of the source; a dose is that of the sample tested. Where survival is the endpoint, the PubChem record calls one and a half times the control and up active, and a quarter to a half above the control has no call in these data; cut-offs in other NCI protocols can differ. Some T/C values carry the count of animals alive at the toxicity check (mostly the fifth day); without a count, all were alive then.

Turning to `Cc1cc(NS(=O)(=O)c2ccc(N=Nc3cc(N=Nc4ccc(S(=O)(=O)Nc5cc(C)nc(C)n5)cc4)c4c(NC(=O)C(Cl)Cl)cccc4c3OC(=O)C(Cl)Cl)cc2)nc(C)n1` (tested in a mixture with another compound), the T/C is, setting by setting: (dose: 12.5 mg/kg/injection, schedule: Q01DX009 (ip), vehicle: saline with Tween-80) 135 % of control; under setting [1], 133 % of control; under setting [2], 131 % of control; under setting [3], 135 % of control; under setting [5], 131 [5 of 6 alive] and 132 % of control. For the same compound, the survivor count is 2 of 6 under setting [3]; 3 of 6 under setting [4]; 3 of 6 under setting [5]; 1 of 6 under setting [6]; 0 of 6 (dose: 400.0 mg/kg/injection, schedule: Q01DX009 (ip), vehicle: saline).
With `Oc1ccccc1C=NCCC[OH2+].Oc1ccccc1C=NCCC[OH2+].[Cu].[Cu]`, the survivor count was 5 of 5 (dose: 25.0 mg/kg/injection, schedule: Q01DX005 (ip), vehicle: saline with Tween-80); 2 of 5 under setting [7]; 0 of 5 and 1 of 5 (dose: 200.0 mg/kg/injection, schedule: Q01DX005 (ip), vehicle: saline with Tween-80). Moreover, the T/C under setting [7] was 126 % of control.
As to `CCCn1c(CC)nc([N+](=O)[O-])c1Sc1ncnc2nc[nH]c12`, the T/C was 129 and 133 % of control (dose: 50.0 mg/kg/injection, schedule: Q01DX005 (ip), vehicle: Klucel (hydroxypropylcellulose) (HPC)); 134 and 142 % of control (dose: 100.0 mg/kg/injection, schedule: Q01DX005 (ip), vehicle: Klucel (hydroxypropylcellulose) (HPC)).
Consider `CC(CCN(C)C)N(C)C` (stereo unspecified), for which, for the setting “dose: 200.0 mg/kg/injection, schedule: Q01DX005 (ip), vehicle: suspension in saline”, the survivor count is 4 of 5.
On to `CCCCCCC1([N+](=O)[O-])CN(C)CC2CCCCN2C1` (stereo unspecified), for which the survivor count under setting [8] is 0 of 6.
For the compound `Oc1cc2c3c(c1)-c1c(ccc(O)c1O)CC3NCC2` (stereo unspecified), the survivor count (dose: 100.0 mg/kg/injection, schedule: Q04DX003 (ip), vehicle: DMSO) is 4 of 6.
Turning to `CCN(CC)c1ccc2cc(-c3nc4ccccc4[nH]3)c(=O)oc2c1`, the survivor count by setting is: under setting [3], 5 of 6; under setting [4], 6 of 6.
Consider `CN1CCCC(C(=O)c2ccccc2)C1` (stereo unspecified), for which the survivor count runs as follows: (dose: 100.0 mg/kg/injection, schedule: Q01DX009 (ip), vehicle: saline) 3 of 6; under setting [5], 0 of 6.
Regarding `CCON1CCC(OC(=O)CC)(c2ccccc2)C(C)C1` (stereo unspecified), the survivor count (dose: 400.0 mg/kg/injection, schedule: Q01DX001 (ip), vehicle: saline) was 1 of 6.
On to `O=P(c1ccccc1)(c1ccccc1)c1ccccc1.O=P(c1ccccc1)(c1ccccc1)c1ccccc1.O=P(c1ccccc1)(c1ccccc1)c1ccccc1.O=P(c1ccccc1)(c1ccccc1)c1ccccc1.[Fe+3].[O-][Cl+3]([O-])([O-])O`, for which the survivor count (dose: 400.0 mg/kg/injection, schedule: Q04DX003 (ip), vehicle: saline with Tween-80) is listed as 0 of 6.
Consider `Cc1ccc(CN(S(=O)(=O)c2ccc(C)cc2)S(=O)(=O)c2ccc(C)cc2)cc1`, for which, under setting [6], the survivor count was 5 of 6.
As for `CC1[C@@H]2CC=C3[C@H]4CCC5Cc6nc7c(nc6C[C@@]5(C)C4CC(=O)[C@]32CO[C@]12OC(C)(C)CC2O)CC1CC[C@@H]2C3=C[C@H]4O[C@@]5(O[C@@](C)(CO)C[C@@H]5O)C(C)[C@@]4(O)[C@]3(C)[C@@H](O)CC2[C@]1(C)C7` (stereo partly specified), the survivor count is 3 of 6 (dose: 0.16 mg/kg/injection, schedule: Q01DX009 (ip), vehicle: saline + alcohol); 0 of 5 (dose: 0.32 mg/kg/injection, schedule: Q01DX009 (ip), vehicle: saline + alcohol); 0 of 4 (dose: 0.65 mg/kg/injection, schedule: Q01DX009 (ip), vehicle: saline + alcohol); 5 of 6 (dose: 80.0 micrograms/kg/injection, schedule: Q01DX005 (ip), vehicle: saline + alcohol). In addition, for the setting “dose: 40.0 micrograms/kg/injection, schedule: Q01DX005 (ip), vehicle: saline + alcohol”, the T/C was 131 % of control (2×).
For `C[CH2][Sn]([CH2]C)[S]CC(N)C(=O)O` (stereo unspecified), the T/C (dose: 15.0 mg/kg/injection, schedule: Q01DX005 (ip), vehicle: Klucel (hydroxypropylcellulose) (HPC)) is 125 % of control. The survivor count by setting is: under setting [9], 0 of 6; (dose: 120.0 mg/kg/injection, schedule: Q01DX005 (ip), vehicle: Klucel (hydroxypropylcellulose) (HPC)) 0 of 6; under setting [10], 0 of 6.
For `COC(=O)c1ccccc1NC(CCN1CCN(c2ccccc2)CC1)=NC(C)(C)C`, the survivor count (dose: 200.0 mg/kg/injection, schedule: Q01DX009 (ip), vehicle: Klucel (hydroxypropylcellulose) (HPC)) is given as 6 of 6.
As for `COc1cc(C/C(=C\c2cc(OC)c(OC)c(OC)c2)[N+](=O)[O-])ccc1OCc1ccccc1`, the survivor count (dose: 200.0 mg/kg/injection, schedule: Q01DX001 (ip), vehicle: Klucel (hydroxypropylcellulose) (HPC)) was 6 of 6.
Regarding `COc1cccc(/C=N/NC(=O)C2CCN(C(=S)NC3CC4C=CC3C4)CC2)c1O` (stereo unspecified), the survivor count under setting [1] is 5 of 6.
Turning to `CN1CCN=C1c1ccc(NC(=O)c2ccc(C(=O)Nc3ccc(C4=NCCN4C)cc3)c(N)c2)cc1`, the T/C (dose: 2.0 mg/kg/injection, schedule: Q01DX009 (ip), vehicle: saline) is 133 % of control. Moreover, the survivor count (dose: 5.0 mg/kg/injection, schedule: Q01DX009 (ip), vehicle: saline) is listed as 0 of 6; the survivor count (dose: 10.0 mg/kg/injection, schedule: Q01DX009 (ip), vehicle: saline) is listed as 2 of 6; the survivor count (dose: 20.0 mg/kg/injection, schedule: Q01DX009 (ip), vehicle: saline) is 0 of 6; the survivor count (dose: 100.0 mg/kg/injection, schedule: Q04DX003 (ip), vehicle: saline) is 0 of 6; the survivor count (dose: 200.0 mg/kg/injection, schedule: Q04DX003 (ip), vehicle: saline) is reported as 0 of 6; the survivor count (dose: 400.0 mg/kg/injection, schedule: Q04DX003 (ip), vehicle: saline) is listed as 0 of 6.
With `CC1CC[P+](C)(c2ccccc2)c2ccccc21` (stereo unspecified), the survivor count (dose: 25.0 mg/kg/injection, schedule: Q04DX002 (ip), vehicle: saline) is 0 of 6; the survivor count (dose: 50.0 mg/kg/injection, schedule: Q04DX002 (ip), vehicle: saline) is reported as 0 of 6; the survivor count (dose: 100.0 mg/kg/injection, schedule: Q04DX002 (ip), vehicle: saline) was 0 of 6; the survivor count (dose: 200.0 mg/kg/injection, schedule: Q04DX002 (ip), vehicle: saline) is recorded as 0 of 6; the survivor count under setting [8] is reported as 0 of 6.
For the compound `CC(=NC(C)C)Nc1ccc(Cl)cc1`, the survivor count is 6 of 6 under setting [2], 1 of 6 under setting [3] and 3 of 6 under setting [4].
With `Cc1cc(NCCCN(C)C)c2ccc3c(ccc4c(NCCCN(C)C)cc(C)nc43)c2n1`, the T/C under setting [2] was 125 % of control. For the same compound, the survivor count under setting [3] is given as 0 of 6.
As for `Oc1cc(O)c(Br)c(O)c1`, the survivor count was 4 of 6 (dose: 60.0 mg/kg/injection, schedule: Q01DX005 (ip), vehicle: saline with Tween-80); 0 of 6 (dose: 120.0 mg/kg/injection, schedule: Q01DX005 (ip), vehicle: saline with Tween-80); 0 of 6 (dose: 240.0 mg/kg/injection, schedule: Q01DX005 (ip), vehicle: saline with Tween-80).
In the case of `CC(C(=O)O)c1ccc2c(c1)Cc1ccccc1-2` (stereo unspecified), the survivor count is, setting by setting: under setting [3], 6 of 6; under setting [4], 5 of 6.
With `CC1(Cc2ccccc2)N=C1c1ccccc1` (stereo unspecified), the survivor count (dose: 400.0 mg/kg/injection, schedule: Q04DX002 (ip), vehicle: saline with Tween-80) is reported as 3 of 6.
In the case of `C/C(=N/N=C(N)N)c1cn(C(=N)N)nc1C`, under setting [9], the T/C was 127 % of control.
As for `CNC(=O)Nc1[nH]c(=O)ncc1I`, the survivor count under setting [10] is 0 of 6.
Take `CCCCCCCCCCCCS(=O)(=O)O`: under setting [1], the T/C was 126 % of control [5 of 6 alive] and the survivor count was 5 of 6. Under setting [2], the survivor count was 5 of 6 (2×).

The values are drawn from PubChem BioAssay AID330 (DTP/NCI, 2004).
